Laboratory results taken from the supplement of paper PMC10849652.
The list shows a part of the results. Residues, ends and D or L forms follow the SMILES beside them. *: point of attachment. Cbz = O=C(OCc1ccccc1)*

The chains behind the UniProt entries cited, without tags or fusion partners. Where a name states a change or a piece, a line headed by the entry shows the natural chain unless it says otherwise.
UniProt O60291: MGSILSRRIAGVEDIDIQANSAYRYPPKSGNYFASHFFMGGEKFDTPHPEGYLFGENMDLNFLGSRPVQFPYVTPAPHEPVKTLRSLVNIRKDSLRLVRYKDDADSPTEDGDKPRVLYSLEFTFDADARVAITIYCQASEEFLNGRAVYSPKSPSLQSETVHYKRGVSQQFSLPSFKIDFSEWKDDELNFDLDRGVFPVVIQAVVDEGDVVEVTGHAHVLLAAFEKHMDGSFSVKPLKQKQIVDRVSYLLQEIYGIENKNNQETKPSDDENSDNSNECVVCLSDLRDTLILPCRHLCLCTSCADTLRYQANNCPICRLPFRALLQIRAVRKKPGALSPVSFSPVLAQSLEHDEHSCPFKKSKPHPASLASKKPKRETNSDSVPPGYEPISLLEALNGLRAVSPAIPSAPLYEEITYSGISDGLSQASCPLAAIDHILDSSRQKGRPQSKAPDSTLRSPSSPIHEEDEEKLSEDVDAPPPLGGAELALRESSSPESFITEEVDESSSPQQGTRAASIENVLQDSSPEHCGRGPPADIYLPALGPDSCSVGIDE
UniProt Q6P2C8: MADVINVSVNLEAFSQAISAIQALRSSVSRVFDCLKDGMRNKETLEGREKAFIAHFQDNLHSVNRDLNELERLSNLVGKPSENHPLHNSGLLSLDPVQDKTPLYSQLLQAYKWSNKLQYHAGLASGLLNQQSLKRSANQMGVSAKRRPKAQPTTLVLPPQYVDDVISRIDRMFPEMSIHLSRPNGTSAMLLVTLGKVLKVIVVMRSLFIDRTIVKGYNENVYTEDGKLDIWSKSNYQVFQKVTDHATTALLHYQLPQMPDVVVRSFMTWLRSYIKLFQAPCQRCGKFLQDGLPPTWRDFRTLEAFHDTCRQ
UniProt Q96G25: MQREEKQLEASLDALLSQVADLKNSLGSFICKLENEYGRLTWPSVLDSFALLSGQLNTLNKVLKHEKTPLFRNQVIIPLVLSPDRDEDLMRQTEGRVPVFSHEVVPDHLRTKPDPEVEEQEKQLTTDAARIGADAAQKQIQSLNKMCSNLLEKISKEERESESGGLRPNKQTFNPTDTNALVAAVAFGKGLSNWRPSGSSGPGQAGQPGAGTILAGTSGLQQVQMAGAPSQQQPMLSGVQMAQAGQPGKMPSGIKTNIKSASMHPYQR
UniProt Q07820, whole entry, looked up: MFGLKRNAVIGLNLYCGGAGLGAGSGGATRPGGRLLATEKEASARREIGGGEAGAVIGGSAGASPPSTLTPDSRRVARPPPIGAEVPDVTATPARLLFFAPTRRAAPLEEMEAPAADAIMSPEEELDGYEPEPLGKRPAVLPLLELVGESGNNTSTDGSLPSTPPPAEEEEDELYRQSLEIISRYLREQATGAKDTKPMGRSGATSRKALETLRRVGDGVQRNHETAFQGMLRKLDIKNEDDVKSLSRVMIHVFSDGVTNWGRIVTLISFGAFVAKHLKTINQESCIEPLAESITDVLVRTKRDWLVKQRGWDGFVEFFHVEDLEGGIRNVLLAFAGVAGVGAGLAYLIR
UniProt Q86YT6, whole entry, looked up: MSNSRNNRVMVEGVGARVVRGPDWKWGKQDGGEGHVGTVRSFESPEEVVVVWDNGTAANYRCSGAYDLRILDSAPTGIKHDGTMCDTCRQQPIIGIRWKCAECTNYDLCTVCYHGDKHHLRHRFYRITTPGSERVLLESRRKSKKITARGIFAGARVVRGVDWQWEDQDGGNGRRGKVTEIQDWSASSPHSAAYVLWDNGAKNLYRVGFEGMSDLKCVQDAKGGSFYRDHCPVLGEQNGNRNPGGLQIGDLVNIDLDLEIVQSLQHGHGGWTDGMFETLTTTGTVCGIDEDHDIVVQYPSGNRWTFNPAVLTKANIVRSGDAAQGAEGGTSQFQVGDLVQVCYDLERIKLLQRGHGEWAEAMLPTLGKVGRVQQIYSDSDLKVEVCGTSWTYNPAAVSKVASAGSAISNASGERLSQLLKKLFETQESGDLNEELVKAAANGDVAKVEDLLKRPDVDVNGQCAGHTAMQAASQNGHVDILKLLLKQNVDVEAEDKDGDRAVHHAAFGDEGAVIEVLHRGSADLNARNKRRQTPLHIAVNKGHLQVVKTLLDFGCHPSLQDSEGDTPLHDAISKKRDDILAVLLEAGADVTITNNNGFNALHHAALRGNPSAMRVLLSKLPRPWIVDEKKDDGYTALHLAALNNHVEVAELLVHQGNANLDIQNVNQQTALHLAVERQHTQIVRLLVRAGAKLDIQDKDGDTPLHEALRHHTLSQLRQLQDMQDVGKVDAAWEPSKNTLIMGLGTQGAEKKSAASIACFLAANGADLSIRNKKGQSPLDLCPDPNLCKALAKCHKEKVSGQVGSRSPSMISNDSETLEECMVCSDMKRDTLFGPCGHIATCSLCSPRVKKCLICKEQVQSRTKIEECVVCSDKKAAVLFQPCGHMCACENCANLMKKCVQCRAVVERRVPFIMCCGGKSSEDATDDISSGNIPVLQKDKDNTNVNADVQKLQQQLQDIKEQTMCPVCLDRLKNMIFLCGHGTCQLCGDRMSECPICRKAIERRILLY
UniProt A4D2B0: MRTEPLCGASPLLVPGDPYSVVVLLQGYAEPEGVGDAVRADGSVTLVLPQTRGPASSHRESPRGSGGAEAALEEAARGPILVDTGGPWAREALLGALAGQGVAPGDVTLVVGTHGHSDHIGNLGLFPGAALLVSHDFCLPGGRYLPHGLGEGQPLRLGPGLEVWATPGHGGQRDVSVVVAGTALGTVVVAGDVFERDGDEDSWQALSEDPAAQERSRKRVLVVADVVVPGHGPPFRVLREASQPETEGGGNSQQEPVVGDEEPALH
UniProt O14770: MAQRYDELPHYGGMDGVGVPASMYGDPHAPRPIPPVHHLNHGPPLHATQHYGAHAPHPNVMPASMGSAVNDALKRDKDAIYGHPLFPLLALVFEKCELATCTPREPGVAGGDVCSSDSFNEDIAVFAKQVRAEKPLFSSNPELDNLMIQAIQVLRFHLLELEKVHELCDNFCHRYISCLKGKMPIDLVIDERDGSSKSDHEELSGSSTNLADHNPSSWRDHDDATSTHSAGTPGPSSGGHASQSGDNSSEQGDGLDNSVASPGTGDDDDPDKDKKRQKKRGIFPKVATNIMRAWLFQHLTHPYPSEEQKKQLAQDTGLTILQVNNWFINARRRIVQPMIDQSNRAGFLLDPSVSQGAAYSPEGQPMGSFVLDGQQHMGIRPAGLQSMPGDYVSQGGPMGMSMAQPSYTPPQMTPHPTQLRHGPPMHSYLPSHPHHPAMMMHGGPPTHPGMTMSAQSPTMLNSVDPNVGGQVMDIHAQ
UniProt Q8N6Q8: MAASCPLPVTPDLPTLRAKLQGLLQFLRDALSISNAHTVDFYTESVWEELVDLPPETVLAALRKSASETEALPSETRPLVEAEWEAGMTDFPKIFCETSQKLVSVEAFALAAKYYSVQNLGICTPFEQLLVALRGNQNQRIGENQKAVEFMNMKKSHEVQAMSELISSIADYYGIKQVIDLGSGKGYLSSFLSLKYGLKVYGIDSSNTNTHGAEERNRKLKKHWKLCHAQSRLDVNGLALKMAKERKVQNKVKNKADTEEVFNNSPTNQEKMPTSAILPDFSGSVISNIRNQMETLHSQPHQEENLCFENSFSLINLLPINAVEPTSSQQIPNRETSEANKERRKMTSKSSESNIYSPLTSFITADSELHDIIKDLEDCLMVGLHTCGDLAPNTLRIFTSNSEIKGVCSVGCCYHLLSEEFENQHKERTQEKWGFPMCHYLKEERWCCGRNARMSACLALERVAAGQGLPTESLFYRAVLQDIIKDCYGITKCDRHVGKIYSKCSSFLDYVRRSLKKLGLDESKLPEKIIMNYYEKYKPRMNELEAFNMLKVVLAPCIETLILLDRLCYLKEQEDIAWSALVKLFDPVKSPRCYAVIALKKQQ
UniProt Q9H204: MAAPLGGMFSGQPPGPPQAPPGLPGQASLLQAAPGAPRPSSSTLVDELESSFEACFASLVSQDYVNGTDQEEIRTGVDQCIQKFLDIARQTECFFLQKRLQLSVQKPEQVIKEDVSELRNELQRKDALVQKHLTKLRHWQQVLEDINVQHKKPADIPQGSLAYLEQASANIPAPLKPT
UniProt Q9UBB5, whole entry, looked up: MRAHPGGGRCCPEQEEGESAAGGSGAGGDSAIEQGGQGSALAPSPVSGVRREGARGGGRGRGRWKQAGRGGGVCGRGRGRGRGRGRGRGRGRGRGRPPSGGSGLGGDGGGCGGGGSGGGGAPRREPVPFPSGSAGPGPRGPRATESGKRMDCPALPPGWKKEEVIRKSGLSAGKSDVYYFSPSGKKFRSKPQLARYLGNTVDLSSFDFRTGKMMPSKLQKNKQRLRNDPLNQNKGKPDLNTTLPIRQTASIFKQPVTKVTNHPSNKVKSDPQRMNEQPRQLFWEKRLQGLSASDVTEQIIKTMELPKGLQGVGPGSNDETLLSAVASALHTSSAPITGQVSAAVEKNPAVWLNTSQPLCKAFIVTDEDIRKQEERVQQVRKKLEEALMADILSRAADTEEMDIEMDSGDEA
UniProt Q8NHS3: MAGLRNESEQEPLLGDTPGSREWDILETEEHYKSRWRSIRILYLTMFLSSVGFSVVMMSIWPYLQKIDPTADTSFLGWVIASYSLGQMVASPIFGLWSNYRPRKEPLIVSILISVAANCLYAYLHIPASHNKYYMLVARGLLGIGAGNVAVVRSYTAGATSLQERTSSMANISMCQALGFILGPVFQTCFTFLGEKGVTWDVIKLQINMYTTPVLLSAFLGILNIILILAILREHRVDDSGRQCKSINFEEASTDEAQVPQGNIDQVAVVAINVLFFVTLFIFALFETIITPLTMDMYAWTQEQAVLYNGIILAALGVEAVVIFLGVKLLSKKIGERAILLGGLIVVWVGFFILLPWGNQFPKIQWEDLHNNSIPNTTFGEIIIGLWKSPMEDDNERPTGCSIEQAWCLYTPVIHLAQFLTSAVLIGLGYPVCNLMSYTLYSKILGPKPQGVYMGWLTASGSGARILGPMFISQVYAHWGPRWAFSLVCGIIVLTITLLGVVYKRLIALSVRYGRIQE
UniProt O95140: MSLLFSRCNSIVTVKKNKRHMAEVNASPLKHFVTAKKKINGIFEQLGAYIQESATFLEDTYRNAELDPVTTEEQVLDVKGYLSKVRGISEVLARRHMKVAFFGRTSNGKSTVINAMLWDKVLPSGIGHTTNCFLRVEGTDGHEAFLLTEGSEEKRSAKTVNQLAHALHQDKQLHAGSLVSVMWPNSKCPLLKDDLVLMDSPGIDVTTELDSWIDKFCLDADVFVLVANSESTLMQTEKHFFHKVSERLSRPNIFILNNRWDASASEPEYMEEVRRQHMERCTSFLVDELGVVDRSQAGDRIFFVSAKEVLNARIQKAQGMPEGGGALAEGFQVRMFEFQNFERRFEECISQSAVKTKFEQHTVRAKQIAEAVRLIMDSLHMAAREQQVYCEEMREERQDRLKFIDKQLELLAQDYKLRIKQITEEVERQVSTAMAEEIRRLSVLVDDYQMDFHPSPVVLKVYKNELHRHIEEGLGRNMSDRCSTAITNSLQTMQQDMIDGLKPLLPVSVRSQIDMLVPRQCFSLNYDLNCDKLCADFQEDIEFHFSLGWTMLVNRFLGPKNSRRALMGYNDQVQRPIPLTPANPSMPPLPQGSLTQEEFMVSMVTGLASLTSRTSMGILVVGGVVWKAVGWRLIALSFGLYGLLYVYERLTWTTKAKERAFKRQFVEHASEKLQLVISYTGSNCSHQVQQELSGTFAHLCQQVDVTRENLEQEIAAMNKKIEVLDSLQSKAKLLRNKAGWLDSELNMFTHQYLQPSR
UniProt Q9BTT4: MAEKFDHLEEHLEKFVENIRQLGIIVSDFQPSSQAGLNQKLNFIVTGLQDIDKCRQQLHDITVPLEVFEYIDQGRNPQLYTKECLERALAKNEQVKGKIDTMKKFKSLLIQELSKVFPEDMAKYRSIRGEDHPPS
UniProt Q6UX53: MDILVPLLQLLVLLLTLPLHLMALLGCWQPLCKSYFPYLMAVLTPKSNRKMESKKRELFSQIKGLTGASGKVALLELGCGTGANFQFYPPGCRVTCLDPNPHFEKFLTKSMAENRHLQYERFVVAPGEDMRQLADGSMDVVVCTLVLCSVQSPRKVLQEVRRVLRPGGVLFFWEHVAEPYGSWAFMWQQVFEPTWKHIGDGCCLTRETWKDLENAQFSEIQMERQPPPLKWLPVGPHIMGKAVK
UniProt Q9H1A3: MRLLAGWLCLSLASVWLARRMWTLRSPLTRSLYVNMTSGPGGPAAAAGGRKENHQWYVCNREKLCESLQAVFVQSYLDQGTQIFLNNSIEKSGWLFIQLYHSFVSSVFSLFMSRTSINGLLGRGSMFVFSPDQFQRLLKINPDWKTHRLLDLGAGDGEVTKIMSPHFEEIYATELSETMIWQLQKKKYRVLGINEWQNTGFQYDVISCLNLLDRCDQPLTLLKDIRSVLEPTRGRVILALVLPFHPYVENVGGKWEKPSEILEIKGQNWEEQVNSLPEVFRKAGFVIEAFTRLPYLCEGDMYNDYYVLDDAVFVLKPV

Legend:
Assay in all cases: log2 fold change, soluble protein after heating vs DMSO (PISA); higher = thermal stabilisation; K562 cells, 10 uM, 30 min; active = over 0.2 and 3.5 SD of the protein, either way, in both replicates (recomputed)
[1] = compound: C#Cc1cccc(Nc2ncnc3cc(OCCOC)c(OCCOC)cc23)c1 [erlotinib]
Outline: (§1)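 K562 cells at 2×10^6 cells/mL were treated for 30 min with 10 μM compound, and aliquots were heated for 3 min over 48°C-58°C before pooling. Extraction used PBS with 0.5% NP-40 at 4°C, and soluble protein was the supernatant after 21,000xg for 90 min, measured by TMTpro 16plex LC-MS/MS with channel sums equalised. Thermal stability values, relative to control samples and from duplicates, are log2 fold changes.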

[2] = compound: C/C(=N\NC(=O)C1=CC(=CC=C1)S(=O)(=O)N2CCOCC2)/C3=C(C=CC(=C3)Cl)O
Outline: as §1

[3] = compound: C1=CC(=CC=C1C2=NC3=C(N2)C=C(C=C3)C(=O)N)OC4=CC=C(C=C4)Cl
Outline: as §1

[4] = compound: C1=CC2=C(C=CC(=C2)/C=C\3/C(=O)NC(=NCC4=CC=CS4)S3)N=C1
Outline: as §1

[5] = compound: C1=CC2=NC=CN=C2C=C1/C=C/3\C(=O)NC(=O)S3
Outline: as §1

[6] = compound: C1=CC=C(C=C1)C2=NC(=C(N2)C3=CC=NC=C3)C4=CC(=C(C=C4)Cl)O
Outline: as §1

[7] = compound: C1=CC=C2C(=C1)C3=NNC4=CC=CC(=C43)C2=O
Outline: as §1

[8] = compound: C1CCN(C1)C(=O)NC2=CC=CC(=C2)NC3=NC=C(C(=N3)NCCC4=CN=CN4)Br
Outline: as §1

[9] = compound: C1CN(CCC1(CC2=CC=C(C=C2)Cl)N)C3=NC=NC4=C3C=CN4
Outline: as §1

[10] = compound: C1COCCN1CCN2C3=CC=CC=C3N=C2NC(=O)C4=CC(=CC=C4)[N+](=O)[O-] [IRAK-1-4 Inhibitor I]
Outline: as §1

[11] = compound: C=CC(=O)N1CCC[C@@H](n2nc(-c3ccc(Oc4ccccc4)cc3)c3c(N)ncnc32)C1 [ibrutinib]
Outline: as §1

[12] = compound: CC(=O)c1cnc2ccc(-c3cc(Cl)c(O)c(Cl)c3)nc2c1N[C@H]1CC[C@H](CN(C)C)CC1
Outline: as §1

[13] = compound: CC(C)(C)Cn1c(N)nc2ccc(-c3[nH]c(C(C)(C)C)nc3-c3ccc(F)cc3)nc21 [ralimetinib]
Outline: as §1

[14] = compound: CC(C)C1=C2N=C(C=C(N2N=C1)NCC3=CC=CC=C3)NCCCCCCN
Outline: as §1

[15] = compound: CC(C)C[C@@H](C=O)NC(=O)[C@H](CC(C)C)NC(=O)[C@H](CC(C)C)NC(=O)OCc1ccccc1
Outline: as §1

[16] = compound: CC(C)N(C[C@H]1O[C@@H](n2cnc3c(N)ncnc32)[C@H](O)[C@@H]1O)[C@H]1C[C@@H](CCc2nc3cc(C(C)(C)C)ccc3[nH]2)C1 [pinometostat]
Outline: as §1

[17] = compound: CC1=C(C2=C(C=C1)C(=O)C3=CC=CC=C3N2CCCN)C
Outline: as §1

[18] = compound: C1=CC(=C(C=C1Cl)C2=NC3=NC=CN=C3C(=N2)NC4=CC=NC=C4)F
Outline: as §1

[19] = compound: CC(C)(O)CC(=O)NCCn1ccc2ncnc(Nc3ccc(Oc4cccc(C(F)(F)F)c4)c(Cl)c3)c21
Outline: as §1

[20] = compound: CC1=C(C(CC(=O)N1)C2=CC=C(C=C2)C(F)(F)F)C(=O)NC3=C(C=C4C(=C3)C=NN4)F
Outline: as §1

| Target | log2 fold change [1] | log2 fold change [2] | log2 fold change [3] | log2 fold change [4] | log2 fold change [5] | log2 fold change [6] | log2 fold change [7] | log2 fold change [8] | log2 fold change [9] | log2 fold change [10] | log2 fold change [11] | log2 fold change [12] | log2 fold change [13] | log2 fold change [14] | log2 fold change [15] | log2 fold change [16] | log2 fold change [17] | log2 fold change [18] | log2 fold change [19] | log2 fold change [20] |
| --- | --- | --- | --- | --- | --- | --- | --- | --- | --- | --- | --- | --- | --- | --- | --- | --- | --- | --- | --- | --- |
| MED25 isoform 3 (UniProt Q71SY5) | inactive: -0.038 | inactive: 0.026 | inactive: 0.005 | inactive: 0.048 | inactive: -0.031 | inactive: 0.062 | inactive: 0.057 | inactive: 0.057 | inactive: 0.07 | inactive: -0.087 | inactive: 0.039 | inactive: -0.086 | inactive: -0.099 | inactive: 0.016 | inactive: -0.061 | inactive: 0.173 | inactive: 0.053 | – | – | – |
| MELK (UniProt Q14680) | inactive: 0.067 | inactive: -0.067 | inactive: 0.027 | inactive: 0.033 | inactive: 0.009 | – | inactive: 0.031 | inactive: -0.027 | inactive: -0.086 | inactive: 0.021 | inactive: 0.032 | active: -0.84 | – | inactive: 0.092 | – | inactive: 0.013 | inactive: 0.011 | inactive: 0.018 | inactive: -0.085 | – |
| MGRN1 isoform 2 (UniProt O60291) | inactive: 0.016 | inactive: 0.079 | inactive: 0 | active: -0.544 | inactive: 0.004 | inactive: -0.095 | inactive: 0.073 | inactive: 0.008 | inactive: 0.227 | inactive: 0.062 | inactive: -0.003 | inactive: 0.116 | inactive: -0.015 | inactive: -0.225 | inactive: 0.114 | inactive: 0.041 | inactive: -0.098 | – | – | – |
| MCUR1 (UniProt Q96AQ8) | inactive: -0.012 | inactive: -0.03 | inactive: 0.003 | inactive: 0.053 | inactive: -0.006 | inactive: 0.102 | inactive: 0.005 | inactive: -0.023 | inactive: 0.063 | inactive: 0.011 | inactive: 0.041 | inactive: -0.077 | inactive: 0.118 | inactive: 0.065 | active: -0.242 | inactive: -0.059 | inactive: -0.002 | inactive: 0.055 | inactive: -0.018 | – |
| MED27 (UniProt Q6P2C8) | inactive: 0.033 | inactive: 0.118 | inactive: -0.138 | inactive: 0.101 | inactive: 0.347 | – | inactive: -0.151 | – | – | – | inactive: -0.421 | inactive: -0.271 | – | inactive: 0.117 | – | – | – | inactive: -0.133 | inactive: -0.077 | inactive: 0.123 |
| MED8 isoform 2 (UniProt Q96G25) | inactive: 0.017 | inactive: -0.19 | inactive: 0.035 | inactive: -0.031 | inactive: 0.152 | inactive: -0.153 | inactive: -0.196 | – | – | inactive: -0.051 | inactive: 0.038 | inactive: -0.216 | inactive: -0.013 | inactive: 0.05 | inactive: 0.06 | inactive: -0.043 | – | inactive: -0.056 | inactive: -0.081 | – |
| MCL1 (UniProt Q07820) | inactive: -0.225 | inactive: 0 | inactive: -0.01 | inactive: -0.057 | inactive: 0.027 | inactive: -0.121 | inactive: -0.161 | inactive: -0.039 | inactive: 0 | inactive: 0.052 | inactive: 0.095 | inactive: -0.036 | inactive: 0.175 | inactive: -0.234 | inactive: 0.295 | inactive: -0.186 | inactive: -0.117 | inactive: -0.037 | inactive: -0.054 | – |
| MIB1 (UniProt Q86YT6) | inactive: -0.03 | inactive: 0.104 | inactive: -0.022 | inactive: -0.073 | inactive: 0.004 | inactive: 0.056 | inactive: 0.03 | inactive: -0.074 | inactive: -0.012 | inactive: -0.254 | inactive: -0.232 | inactive: -0.094 | inactive: 0.092 | inactive: -0.082 | inactive: 0.156 | inactive: 0.142 | inactive: 0.076 | inactive: -0.049 | inactive: -0.097 | – |
| MBLAC1 (UniProt A4D2B0) | inactive: 0.074 | inactive: -0.042 | inactive: 0.026 | inactive: 0.036 | inactive: 0.019 | inactive: 0.002 | inactive: -0.024 | – | – | inactive: 0.371 | inactive: -0.03 | inactive: 0.001 | inactive: -0.074 | inactive: 0.126 | inactive: -0.011 | inactive: -0.163 | – | – | – | – |
| MEIS2 (UniProt O14770) | inactive: 0.049 | inactive: 0.213 | inactive: 0.021 | inactive: 0.135 | inactive: 0.102 | inactive: 0.046 | inactive: 0.059 | – | – | inactive: 0.138 | inactive: -0.04 | inactive: -0.01 | inactive: 0.063 | inactive: -0.149 | inactive: -0.008 | inactive: 0.087 | – | – | – | – |
| METTL25 (UniProt Q8N6Q8) | inactive: 0.128 | inactive: -0.088 | inactive: -0.065 | inactive: -0.117 | inactive: 0.153 | – | inactive: -0.011 | – | – | inactive: 0.143 | inactive: -0.256 | inactive: 0.066 | – | inactive: 0.066 | – | inactive: -0.035 | – | inactive: -0.134 | inactive: 0.324 | inactive: 0.119 |
| MED28 (UniProt Q9H204) | inactive: -0.058 | inactive: 0.026 | inactive: 0.062 | inactive: 0.147 | inactive: -0.025 | inactive: 0.032 | inactive: -0.018 | inactive: -0.244 | inactive: 0.028 | – | inactive: -0.111 | inactive: -0.109 | inactive: -0.017 | inactive: 0.037 | inactive: -0.065 | – | inactive: 0.138 | – | – | inactive: 0.052 |
| MBD2 (UniProt Q9UBB5) | inactive: 0.263 | inactive: -0.121 | inactive: 0.056 | inactive: 0.16 | inactive: 0.069 | inactive: 0.06 | inactive: 0.072 | inactive: 0.132 | inactive: -0.082 | – | inactive: -0.036 | inactive: -0.201 | inactive: 0.076 | inactive: -0.144 | inactive: -0.154 | – | inactive: -0.155 | inactive: -0.118 | inactive: 0.005 | inactive: -0.034 |
| MFSD8 (UniProt Q8NHS3) | inactive: 0.047 | inactive: -0.018 | inactive: -0.089 | inactive: 0.009 | inactive: 0.166 | inactive: 0 | inactive: -0.054 | inactive: -0.033 | inactive: -0.091 | inactive: 0.062 | inactive: 0.13 | inactive: 0.036 | inactive: 0.19 | active: -0.446 | inactive: 0.08 | inactive: 0.101 | inactive: 0.124 | inactive: -0.012 | inactive: 0.067 | – |
| MFN2 (UniProt O95140) | inactive: 0.027 | inactive: 0.049 | inactive: -0.001 | inactive: 0.026 | inactive: 0.008 | inactive: 0.041 | inactive: -0.003 | inactive: -0.016 | inactive: -0.019 | inactive: -0.033 | inactive: 0.03 | inactive: -0.055 | inactive: -0.014 | active: -0.479 | inactive: 0.032 | inactive: -0.017 | inactive: 0.049 | inactive: 0.007 | inactive: 0.009 | – |
| MED10 (UniProt Q9BTT4) | inactive: -0.103 | inactive: 0 | inactive: 0.061 | inactive: 0.081 | – | inactive: -0.007 | inactive: 0.05 | inactive: -0.148 | inactive: 0.008 | inactive: -0.172 | – | inactive: -0.028 | inactive: -0.059 | inactive: 0.078 | inactive: 0.005 | inactive: -0.025 | inactive: 0.202 | inactive: 0.026 | inactive: -0.144 | inactive: 0.036 |
| METTL7B (UniProt Q6UX53) | inactive: -0.069 | inactive: 0.161 | inactive: -0.151 | inactive: -0.042 | – | – | inactive: 0.088 | – | – | – | – | inactive: 0.049 | – | inactive: 0.042 | – | – | – | inactive: -0.058 | inactive: 0.011 | – |
| METTL9 (UniProt Q9H1A3) | inactive: -0.183 | inactive: -0.013 | inactive: 0.008 | inactive: -0.105 | inactive: 0.045 | inactive: 0.033 | inactive: -0.05 | inactive: -0.02 | inactive: -0.083 | – | inactive: -0.031 | inactive: 0.16 | inactive: -0.022 | inactive: -0.01 | inactive: 0.11 | – | inactive: 0.082 | – | – | – |
| METTL18 (UniProt O95568) | inactive: -0.042 | inactive: -0.037 | inactive: 0.027 | inactive: 0.038 | inactive: 0.046 | inactive: -0.039 | inactive: -0.06 | inactive: 0.028 | inactive: 0.078 | inactive: 0.01 | inactive: 0.019 | inactive: 0.013 | inactive: -0.036 | inactive: -0.009 | inactive: -0.003 | inactive: 0.023 | inactive: 0.072 | inactive: -0.08 | inactive: 0.016 | – |

Single records, as listed above. Order of values: log2 fold change [1] | log2 fold change [2] | log2 fold change [3] | log2 fold change [4] | log2 fold change [5] | log2 fold change [6] | log2 fold change [7] | log2 fold change [8] | log2 fold change [9] | log2 fold change [10] | log2 fold change [11] | log2 fold change [12] | log2 fold change [13] | log2 fold change [14] | log2 fold change [15] | log2 fold change [16] | log2 fold change [17] | log2 fold change [18] | log2 fold change [19] | log2 fold change [20]
MGRN1 isoform 2 (UniProt O60291) in the list: inactive: 0.016 | inactive: 0.079 | inactive: 0 | active: -0.544 | inactive: 0.004 | inactive: -0.095 | inactive: 0.073 | inactive: 0.008 | inactive: 0.227 | inactive: 0.062 | inactive: -0.003 | inactive: 0.116 | inactive: -0.015 | inactive: -0.225 | inactive: 0.114 | inactive: 0.041 | inactive: -0.098 | – | – | –
METTL7B (UniProt Q6UX53) in the list: inactive: -0.069 | inactive: 0.161 | inactive: -0.151 | inactive: -0.042 | – | – | inactive: 0.088 | – | – | – | – | inactive: 0.049 | – | inactive: 0.042 | – | – | – | inactive: -0.058 | inactive: 0.011 | –
